The structures given here were assigned with low confidence; some may be wrong.
Molecular target: GRPR (Homo sapiens, UniProt P30550)
Assay: Cell-binding assay: inhibition of ^125I-[Tyr4]BBN binding on PC3 cells
Details: read-out: IC50 (inhibition of GRPR-binding of ^125I-[Tyr4]BBN), 0.06 nM radioligand, 37° C., 1 h, n=4, mean±SD
Method: The cell-binding assay was performed similarly as previously reported (18, 35). Briefly, the PC3 cells (3×10^4) were incubated with 0.06 nM ^125I-[Tyr4]BBN and varying concentrations of peptides in the binding buffer (RPMI 1640+2 mg/mL BSA+5.2 mg/mL HEPES) at 37° C. for 1 h. The cell-bound, residual radioactivity after washing was determined by gamma counting. The IC50 values, the concentration of competitor required to inhibit 50% of the radioligand binding, were determined by non-linear regression using GraphPad Prism (GraphPad Software, Inc.). The experiments were performed in quadruplicate.
All of these peptides inhibited the GRPR-binding of ^125I-[Tyr4]BBN on the PC3 cells in a concentration-dependent manner. The IC50 values for RM1, NODAGA-RM1, AMBA and NODAGA-AMBA were 0.25±0.04, 4.6±1.0, 0.17±0.07 and 1.9±0.50 nM (n=4), respectively.

Protein sequences, listed by entry. Tags and fused reporters are not part of them.
UniProt P30550, whole entry: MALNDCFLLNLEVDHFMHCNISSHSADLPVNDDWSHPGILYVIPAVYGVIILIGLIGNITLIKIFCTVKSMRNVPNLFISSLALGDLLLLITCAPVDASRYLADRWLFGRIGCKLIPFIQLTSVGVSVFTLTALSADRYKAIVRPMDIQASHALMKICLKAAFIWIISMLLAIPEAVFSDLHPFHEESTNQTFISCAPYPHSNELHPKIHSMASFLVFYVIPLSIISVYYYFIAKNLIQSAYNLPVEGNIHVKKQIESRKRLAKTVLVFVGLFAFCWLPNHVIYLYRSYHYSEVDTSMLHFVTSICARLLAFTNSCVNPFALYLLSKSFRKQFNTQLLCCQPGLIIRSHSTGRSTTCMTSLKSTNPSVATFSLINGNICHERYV

Structure (SMILES): CC(C)C[C@H](NC(=O)C[C@H](O)[C@H](CC(C)C)NC(=O)[C@H](Cc1c[nH]cn1)NC(=O)CNC(=O)[C@@H](NC(=O)[C@H](C)NC(=O)[C@H](Cc1c[nH]c2ccccc12)NC(=O)[C@H](CCC(N)=O)NC(=O)[C@@H](Cc1ccccc1)NC(=O)c1ccc(NC(=O)CNC(=O)CCC(C(=O)O)N2CCN(CC(=O)O)CCN(CC(=O)O)CC2)cc1)C(C)C)C(N)=O (stereo partly shown)
- IC50: 4.6 nM

— US20130323171A1, “RADIOLABELED BBN ANALOGS FOR PET IMAGING OF GASTRIN-RELEASING PEPTIDE RECEPTORS” (priority 2012, published 2013)
